Data: EP4674859A1 (dated 2024)

Experiment: general procedure: Fmoc solid-phase peptide synthesis; 2-chlorotrityl resin
Details: late stage modification step

(2-(4-(6-methyl-1,2,4,5-tetrazin-3-yl)phenyl)acetyl)glycylglycyl-L-serylglycylglycylglycyl-L-serylglycylglycylglycyl-L-seryl-L-aspartylglycyl-L-leucyl-L-histidine
step yield: 71%
